In PMC12676205, “New Se‐Compounds With Antileishmanial, Antitumor, and Carbonic Anhydrase Inhibitory Properties” (Archiv Der Pharmazie, 2025):

Assays:
[1] = test system: L. major promastigotes; experiment: Leishmanicidal activity against promastigotes (MTT), L. major; assay type: cell-based, Leishmania major; conditions: CC50 THP‐1 / IC50 L. major promastigotes
Protocol: (§1) The synthesized compounds were tested for their antileishmanial activity against promastigotes of L. major and L. infantum at four concentrations (1, 10, 50, and 100 µM) for 48 h using the 3‐(4,5‐dimethylthiazol‐2‐yl)‐2,5‐diphenyltetrazolium bromide (MTT) assay. In this evaluation, the activity was expressed in IC50 (concentration inhibiting the parasite growth by 50%). […] The CC50 was defined as the concentration of selenoesters that led to a reduction in the viability of the macrophages, such that only 50% of the cells survived when compared to the control group. This cell line, derived from the blood of a human with acute monocytic leukemia, was chosen as it has been widely reported that it resembles tissue macrophages to various extents as well as supports the infection by numerous Leishmania promastigotes. The selectivity indexes (SIs) were calculated as the ratio between toxicity on macrophages (THP‐1 cells)/antileishmanial activity. The data for standard control drugs (miltefosine and paromomycin) are included for comparison purposes.
(§2) The promastigotes of L. major (clone VI, MHOM/IL/80/Friendlin) and L. infantum (BCN‐150) were grown at 26°C under continuous shaking in M199 1× medium (Sigma, USA). This media was supplemented with 10% of heat‐inactivated fetal bovine serum (FBS) (Gibco, USA), 0.0005% (w/v) hemin, 0.1 mM adenine, 25 mM HEPES (pH 7.2), 0.0001% (w/v) biotin, and 100 UI/mL penicillin and […] streptomycin (Gibco, USA).
(§3) The antileishmanial activity of the reported selenoesters was determined using the MTT assay as previously described during the logarithmic growth phase of the tested promastigotes of L. major and L. infantum. Briefly, the Leishmania parasites were seeded into 96‐well flat‐bottom plates (3 × 10^5 parasites/100 µL) and treated with four different concentrations ranging between 1 and 100 µM of each selenoester at 26°C for 48 h. Afterwards, 20 µL of MTT (5 mg/mL in PBS) was added to each well and incubated for 4 h under the same conditions. […] The absorbances were determined on a Multiskan EX photometric plate reader for microplates at 540 nm. […]

[2] = test system: L. infantum promastigotes; experiment: Leishmanicidal activity against promastigotes (MTT), L. infantum; assay type: cell-based, Leishmania infantum; conditions: CC50 THP‐1 / IC50 L. infantum promastigotes
Protocol: as §1, §2, §3

SMILES	SI L. major [1]	SI L. infantum [2]
O=C(C[Se]C(=O)c1ccccc1)Nc1cccc(OC(F)(F)F)c1 [Compound 3, Se‐(2‐oxo‐2‐((3‐(trifluoromethoxy)phenyl)amino)ethyl)benzoselenoate]	> 20.68	> 30.35
O=C(C[Se]C(=O)c1ccco1)Nc1ccc([N+](=O)[O-])c(C(F)(F)F)c1 [Compound 5, Se‐(2‐((4‐nitro‐3‐(trifluoromethyl)phenyl)amino)‐2‐oxoethyl)furan‐2‐carboselenoate]	5.91	3.29
O=C(C[Se]C(=O)c1ccco1)Nc1cccc(OC(F)(F)F)c1 [Compound 6, Se‐(2‐oxo‐2‐((3‐(trifluoromethoxy)phenyl)amino)ethyl)furan‐2‐carboselenoate]	3.83	6.47
